# Reference: US6294325
# For at least one entry, the source does not settle the construct or the ends of the probe. No signal at the amounts used counts as a negative.
# Test system: MutS + MutL
# Assay: activity assay
# Conditions: 3' phosphate on the 28-mer; allele-specific PCR; 1 uM MutS + 0.2 uM MutL; matched pUC19GC allele amplified (100% AvaII cleavage at equal template); purified recombinant protein
sequence,measurement,value
GGGGACCCTC (double strand) [TaqMan 28-mer/pUC19GC perfect homoduplex],activity on this sequence,not active
